According to patent publication US20250262210A1, “LZTR1 MUTANT TUMORS AND METHODS THEREOF” (The Trustees of Columbia University in the City of New York, priority 2022, published 2025):
No constants are given. Whether binding was seen depends on the method and setting. For some of these results: Binding seen in cells or lysates may run through a third protein. Some results given as binding are weak or reduced against the parent protein; the word gives no strength. Where a sequence is shown, tags or fusion partners need not be part of it. Blank lines part the entries; values can stand above or below the binder they belong to.

Sequences of proteins named here, by UniProt entry; tags and fusion partners are left off. Residues count along the entry.
UniProt P30530, residues 26-894: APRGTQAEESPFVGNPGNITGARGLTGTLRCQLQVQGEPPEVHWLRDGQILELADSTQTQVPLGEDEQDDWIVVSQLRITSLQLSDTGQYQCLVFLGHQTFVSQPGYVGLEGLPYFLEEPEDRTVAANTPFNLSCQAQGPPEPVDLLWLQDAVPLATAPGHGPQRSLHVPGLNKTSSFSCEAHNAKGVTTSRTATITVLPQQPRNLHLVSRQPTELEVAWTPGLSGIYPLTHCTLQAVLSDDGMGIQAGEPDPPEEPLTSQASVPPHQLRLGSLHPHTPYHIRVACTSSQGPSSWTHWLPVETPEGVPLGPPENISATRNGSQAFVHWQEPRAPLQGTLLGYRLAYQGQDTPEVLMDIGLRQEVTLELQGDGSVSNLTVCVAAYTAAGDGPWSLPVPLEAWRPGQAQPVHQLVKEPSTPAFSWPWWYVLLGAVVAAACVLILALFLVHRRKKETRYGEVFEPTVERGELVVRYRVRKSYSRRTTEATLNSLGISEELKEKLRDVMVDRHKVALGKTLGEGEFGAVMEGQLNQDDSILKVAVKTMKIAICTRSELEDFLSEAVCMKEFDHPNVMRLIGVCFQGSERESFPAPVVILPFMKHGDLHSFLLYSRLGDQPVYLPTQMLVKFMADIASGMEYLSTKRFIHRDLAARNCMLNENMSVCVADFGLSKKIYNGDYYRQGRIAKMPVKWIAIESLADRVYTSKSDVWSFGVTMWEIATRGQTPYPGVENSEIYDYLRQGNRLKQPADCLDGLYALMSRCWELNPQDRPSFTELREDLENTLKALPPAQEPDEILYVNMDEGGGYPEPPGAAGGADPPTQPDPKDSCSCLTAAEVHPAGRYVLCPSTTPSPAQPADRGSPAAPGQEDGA
UniProt O60318: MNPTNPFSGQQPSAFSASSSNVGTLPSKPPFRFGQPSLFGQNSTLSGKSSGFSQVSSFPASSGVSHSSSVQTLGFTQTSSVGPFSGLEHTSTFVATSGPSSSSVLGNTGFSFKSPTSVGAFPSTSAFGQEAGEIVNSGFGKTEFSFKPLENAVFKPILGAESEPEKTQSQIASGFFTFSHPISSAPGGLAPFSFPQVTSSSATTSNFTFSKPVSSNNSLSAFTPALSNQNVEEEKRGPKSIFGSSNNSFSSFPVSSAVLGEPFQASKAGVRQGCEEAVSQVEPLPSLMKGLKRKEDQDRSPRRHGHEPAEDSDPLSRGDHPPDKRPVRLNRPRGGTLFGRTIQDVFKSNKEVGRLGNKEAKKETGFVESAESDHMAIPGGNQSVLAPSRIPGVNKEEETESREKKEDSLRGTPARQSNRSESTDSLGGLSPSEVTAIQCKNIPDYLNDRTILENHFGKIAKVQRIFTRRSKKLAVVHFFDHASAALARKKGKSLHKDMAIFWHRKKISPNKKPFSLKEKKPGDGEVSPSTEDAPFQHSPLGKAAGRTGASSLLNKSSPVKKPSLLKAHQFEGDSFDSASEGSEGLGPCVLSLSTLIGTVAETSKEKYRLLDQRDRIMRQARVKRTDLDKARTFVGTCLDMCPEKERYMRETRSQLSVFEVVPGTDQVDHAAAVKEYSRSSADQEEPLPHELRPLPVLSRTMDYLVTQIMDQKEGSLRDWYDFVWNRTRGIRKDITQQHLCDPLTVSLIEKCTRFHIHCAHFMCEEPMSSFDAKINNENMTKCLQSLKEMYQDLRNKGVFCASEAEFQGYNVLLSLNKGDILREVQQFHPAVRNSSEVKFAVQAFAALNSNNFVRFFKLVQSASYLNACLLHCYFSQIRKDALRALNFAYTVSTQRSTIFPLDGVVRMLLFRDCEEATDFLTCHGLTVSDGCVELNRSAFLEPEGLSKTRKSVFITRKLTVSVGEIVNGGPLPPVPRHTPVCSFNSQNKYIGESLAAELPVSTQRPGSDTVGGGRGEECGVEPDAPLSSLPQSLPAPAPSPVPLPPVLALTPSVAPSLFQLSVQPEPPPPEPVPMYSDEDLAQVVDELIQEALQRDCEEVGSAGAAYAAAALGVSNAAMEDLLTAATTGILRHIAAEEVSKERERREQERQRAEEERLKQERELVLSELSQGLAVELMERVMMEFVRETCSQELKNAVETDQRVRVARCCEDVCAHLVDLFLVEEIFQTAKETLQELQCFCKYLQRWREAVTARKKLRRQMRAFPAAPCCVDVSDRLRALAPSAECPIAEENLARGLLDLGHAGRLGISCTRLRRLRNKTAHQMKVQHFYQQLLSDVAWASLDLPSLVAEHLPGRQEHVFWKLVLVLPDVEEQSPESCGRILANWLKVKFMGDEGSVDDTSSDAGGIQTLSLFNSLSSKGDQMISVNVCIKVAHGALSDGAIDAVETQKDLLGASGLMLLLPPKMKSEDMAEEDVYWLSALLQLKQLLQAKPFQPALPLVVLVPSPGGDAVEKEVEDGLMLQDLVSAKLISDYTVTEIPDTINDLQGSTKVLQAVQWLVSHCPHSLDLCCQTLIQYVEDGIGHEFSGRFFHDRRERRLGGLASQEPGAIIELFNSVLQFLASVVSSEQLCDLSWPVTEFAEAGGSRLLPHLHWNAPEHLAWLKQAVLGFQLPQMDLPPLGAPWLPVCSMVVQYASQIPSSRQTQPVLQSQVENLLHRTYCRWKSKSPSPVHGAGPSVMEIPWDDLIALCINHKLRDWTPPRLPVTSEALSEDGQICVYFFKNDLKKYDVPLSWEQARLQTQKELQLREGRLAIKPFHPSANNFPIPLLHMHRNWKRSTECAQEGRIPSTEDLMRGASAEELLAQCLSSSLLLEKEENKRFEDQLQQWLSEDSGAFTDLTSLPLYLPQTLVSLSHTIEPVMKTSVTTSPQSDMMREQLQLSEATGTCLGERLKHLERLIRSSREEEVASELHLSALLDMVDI
UniProt P35555, residues 45-2731: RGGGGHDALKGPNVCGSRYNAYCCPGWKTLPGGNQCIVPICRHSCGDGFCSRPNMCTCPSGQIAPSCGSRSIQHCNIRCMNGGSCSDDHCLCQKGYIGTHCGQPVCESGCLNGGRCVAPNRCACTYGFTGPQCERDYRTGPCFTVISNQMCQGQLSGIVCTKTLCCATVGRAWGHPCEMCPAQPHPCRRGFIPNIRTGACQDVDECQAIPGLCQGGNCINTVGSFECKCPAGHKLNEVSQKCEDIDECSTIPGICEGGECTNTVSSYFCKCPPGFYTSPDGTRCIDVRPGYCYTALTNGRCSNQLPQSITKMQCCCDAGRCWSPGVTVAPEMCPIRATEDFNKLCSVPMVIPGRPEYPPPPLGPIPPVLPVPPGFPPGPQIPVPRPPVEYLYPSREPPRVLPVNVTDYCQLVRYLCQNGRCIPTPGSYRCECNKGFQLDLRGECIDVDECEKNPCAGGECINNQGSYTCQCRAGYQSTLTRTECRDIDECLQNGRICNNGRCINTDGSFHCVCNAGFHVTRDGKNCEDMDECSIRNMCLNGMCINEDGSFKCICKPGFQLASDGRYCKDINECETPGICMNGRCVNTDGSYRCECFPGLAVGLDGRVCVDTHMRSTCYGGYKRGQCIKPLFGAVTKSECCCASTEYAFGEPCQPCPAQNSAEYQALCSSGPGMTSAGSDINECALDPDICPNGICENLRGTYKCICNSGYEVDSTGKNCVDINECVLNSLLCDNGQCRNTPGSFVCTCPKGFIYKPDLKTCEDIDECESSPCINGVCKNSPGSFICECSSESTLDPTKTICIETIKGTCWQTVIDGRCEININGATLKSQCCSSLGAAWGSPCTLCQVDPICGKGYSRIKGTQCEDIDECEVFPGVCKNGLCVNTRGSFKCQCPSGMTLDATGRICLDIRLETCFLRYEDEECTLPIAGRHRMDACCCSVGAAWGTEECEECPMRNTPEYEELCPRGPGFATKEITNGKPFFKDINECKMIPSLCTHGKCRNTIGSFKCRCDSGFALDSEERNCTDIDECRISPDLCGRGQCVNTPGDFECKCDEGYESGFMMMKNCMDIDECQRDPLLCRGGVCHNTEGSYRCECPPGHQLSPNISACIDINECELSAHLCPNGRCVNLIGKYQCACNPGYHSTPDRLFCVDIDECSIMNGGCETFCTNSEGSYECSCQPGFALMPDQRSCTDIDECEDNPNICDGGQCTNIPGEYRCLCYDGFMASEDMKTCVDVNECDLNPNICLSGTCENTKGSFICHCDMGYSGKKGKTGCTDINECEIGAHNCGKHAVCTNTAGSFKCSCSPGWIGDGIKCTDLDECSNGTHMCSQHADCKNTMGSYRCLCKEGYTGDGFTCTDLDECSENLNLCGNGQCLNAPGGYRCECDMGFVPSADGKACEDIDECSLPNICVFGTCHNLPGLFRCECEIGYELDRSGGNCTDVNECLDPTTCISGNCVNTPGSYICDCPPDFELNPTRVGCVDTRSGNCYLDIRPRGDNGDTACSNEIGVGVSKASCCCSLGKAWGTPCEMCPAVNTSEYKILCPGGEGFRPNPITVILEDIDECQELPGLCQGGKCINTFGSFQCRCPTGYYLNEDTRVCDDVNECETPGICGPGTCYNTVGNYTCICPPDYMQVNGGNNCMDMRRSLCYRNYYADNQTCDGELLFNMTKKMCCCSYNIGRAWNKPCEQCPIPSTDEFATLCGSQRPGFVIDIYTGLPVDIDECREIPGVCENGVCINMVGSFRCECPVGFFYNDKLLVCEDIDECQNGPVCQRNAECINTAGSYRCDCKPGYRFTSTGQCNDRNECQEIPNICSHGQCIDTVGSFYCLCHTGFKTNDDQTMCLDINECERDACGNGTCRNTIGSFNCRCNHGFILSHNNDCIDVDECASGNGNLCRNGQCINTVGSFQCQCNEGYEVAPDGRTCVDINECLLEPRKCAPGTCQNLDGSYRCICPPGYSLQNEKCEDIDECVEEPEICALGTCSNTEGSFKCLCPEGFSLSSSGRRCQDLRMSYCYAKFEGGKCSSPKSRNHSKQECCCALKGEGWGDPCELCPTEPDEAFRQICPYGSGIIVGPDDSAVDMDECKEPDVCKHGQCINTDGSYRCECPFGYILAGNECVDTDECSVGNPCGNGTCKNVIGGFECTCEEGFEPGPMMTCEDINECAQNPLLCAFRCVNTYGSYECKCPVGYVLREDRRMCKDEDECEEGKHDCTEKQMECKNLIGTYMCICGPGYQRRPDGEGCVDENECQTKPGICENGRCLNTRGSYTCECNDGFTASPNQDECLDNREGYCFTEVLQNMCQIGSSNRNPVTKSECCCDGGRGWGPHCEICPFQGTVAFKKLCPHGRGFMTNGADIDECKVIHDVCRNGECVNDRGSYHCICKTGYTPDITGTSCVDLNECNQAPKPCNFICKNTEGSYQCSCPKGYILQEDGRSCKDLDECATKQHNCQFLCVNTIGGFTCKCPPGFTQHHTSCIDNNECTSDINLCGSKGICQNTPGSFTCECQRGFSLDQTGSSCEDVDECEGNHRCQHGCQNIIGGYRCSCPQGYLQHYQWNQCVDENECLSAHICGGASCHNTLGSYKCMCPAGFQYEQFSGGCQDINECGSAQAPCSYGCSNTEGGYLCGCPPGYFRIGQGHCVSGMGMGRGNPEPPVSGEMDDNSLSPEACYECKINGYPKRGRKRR
UniProt P29590: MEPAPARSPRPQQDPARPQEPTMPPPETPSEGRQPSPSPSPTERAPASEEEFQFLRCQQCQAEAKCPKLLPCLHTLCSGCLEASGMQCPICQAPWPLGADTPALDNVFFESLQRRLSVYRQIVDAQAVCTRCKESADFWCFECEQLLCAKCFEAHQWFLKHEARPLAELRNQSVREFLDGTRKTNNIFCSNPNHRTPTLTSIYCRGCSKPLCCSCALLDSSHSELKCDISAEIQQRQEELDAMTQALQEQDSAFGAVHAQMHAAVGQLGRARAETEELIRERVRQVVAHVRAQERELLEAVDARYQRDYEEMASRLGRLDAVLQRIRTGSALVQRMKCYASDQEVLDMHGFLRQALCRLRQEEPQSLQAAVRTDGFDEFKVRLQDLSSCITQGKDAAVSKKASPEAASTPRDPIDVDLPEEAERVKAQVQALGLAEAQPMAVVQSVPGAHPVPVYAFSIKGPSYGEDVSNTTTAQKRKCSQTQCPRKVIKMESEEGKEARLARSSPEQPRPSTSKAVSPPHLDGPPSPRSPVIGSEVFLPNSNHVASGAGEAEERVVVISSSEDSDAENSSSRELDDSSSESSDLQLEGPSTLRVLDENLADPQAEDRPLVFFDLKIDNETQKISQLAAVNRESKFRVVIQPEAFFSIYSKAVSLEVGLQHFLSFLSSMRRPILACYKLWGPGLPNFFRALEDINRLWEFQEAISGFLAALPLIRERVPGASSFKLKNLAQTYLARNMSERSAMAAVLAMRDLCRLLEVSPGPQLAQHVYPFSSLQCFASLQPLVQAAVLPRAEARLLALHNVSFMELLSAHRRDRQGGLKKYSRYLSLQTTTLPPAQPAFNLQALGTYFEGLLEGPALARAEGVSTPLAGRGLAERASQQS

Experiments:
[1] = biological target: EGFR-GFP (UniProt P00533); assay: co-immunoprecipitation (GFP antibody; FLAG affinity matrix), HEK 293T lysates, western blot
[2] = biological target: EGFR-GFP (UniProt P00533); assay: summing up of the co-immunoprecipitations (introduction of Example 1)
[3] = biological target: AXL-HA (UniProt P30530); assay: as above
[4] = biological target: EGFR-GFP (UniProt P00533); assay: co-immunoprecipitation, HEK 293T cells (legend of FIGS. 2P-Q)
[5] = biological target: T1, TMC04 (human) (UniProt Q5TGY1); assay: IP/MS, LZTR1 wild type-FLAG, U87
T1 sequence (looked up): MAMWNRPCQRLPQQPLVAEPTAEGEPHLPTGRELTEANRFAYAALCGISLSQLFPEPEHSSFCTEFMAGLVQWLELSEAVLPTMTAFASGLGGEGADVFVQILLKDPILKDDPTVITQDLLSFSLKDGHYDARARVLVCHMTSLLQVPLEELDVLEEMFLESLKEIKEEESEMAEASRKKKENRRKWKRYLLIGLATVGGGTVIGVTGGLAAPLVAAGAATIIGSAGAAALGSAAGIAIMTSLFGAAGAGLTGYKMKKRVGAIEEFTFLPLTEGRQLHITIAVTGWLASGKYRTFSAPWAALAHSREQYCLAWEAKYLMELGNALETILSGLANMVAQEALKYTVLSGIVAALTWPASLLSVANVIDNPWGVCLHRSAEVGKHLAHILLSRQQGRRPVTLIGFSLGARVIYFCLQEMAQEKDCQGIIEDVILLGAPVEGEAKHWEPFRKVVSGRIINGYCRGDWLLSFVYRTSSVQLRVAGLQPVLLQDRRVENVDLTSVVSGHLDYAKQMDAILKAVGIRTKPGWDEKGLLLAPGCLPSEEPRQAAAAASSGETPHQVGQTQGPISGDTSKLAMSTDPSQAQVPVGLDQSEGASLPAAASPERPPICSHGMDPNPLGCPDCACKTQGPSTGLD

[6] = biological target: T2, FASTKD2 (human) (UniProt Q9NYY8); assay: IP/MS, LZTR1 wild type-FLAG, U87
T2 sequence (looked up): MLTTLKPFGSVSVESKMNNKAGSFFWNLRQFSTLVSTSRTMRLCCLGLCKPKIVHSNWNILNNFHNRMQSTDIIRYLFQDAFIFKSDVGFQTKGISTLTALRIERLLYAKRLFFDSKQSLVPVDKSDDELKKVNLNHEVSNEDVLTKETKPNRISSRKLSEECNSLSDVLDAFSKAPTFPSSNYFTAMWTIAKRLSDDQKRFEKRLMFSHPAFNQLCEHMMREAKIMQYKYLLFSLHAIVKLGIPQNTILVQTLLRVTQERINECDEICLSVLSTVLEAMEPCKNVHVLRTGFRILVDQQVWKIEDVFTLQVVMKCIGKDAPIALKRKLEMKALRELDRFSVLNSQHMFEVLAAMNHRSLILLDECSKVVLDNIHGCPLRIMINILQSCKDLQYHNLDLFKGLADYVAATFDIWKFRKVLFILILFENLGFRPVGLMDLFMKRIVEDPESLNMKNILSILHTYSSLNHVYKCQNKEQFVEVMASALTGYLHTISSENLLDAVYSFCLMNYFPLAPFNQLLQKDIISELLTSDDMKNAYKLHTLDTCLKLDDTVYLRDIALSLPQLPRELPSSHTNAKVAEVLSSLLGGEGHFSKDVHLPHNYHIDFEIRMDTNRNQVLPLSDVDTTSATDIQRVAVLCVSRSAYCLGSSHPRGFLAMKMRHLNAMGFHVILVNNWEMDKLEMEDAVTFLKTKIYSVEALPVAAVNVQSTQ

[7] = biological target: VCAN (human) (UniProt P13611); assay: IP/MS, LZTR1 wild type-FLAG, U87
[8] = biological target: MCM3AP (human) (UniProt O60318); assay: IP/MS, LZTR1 wild type-FLAG, U87
[9] = biological target: FBN1 (human) (UniProt P35555); assay: IP/MS, LZTR1 wild type-FLAG, U87
[10] = biological target: T3, SHC1 (human) (UniProt P29353); assay: IP/MS, LZTR1 wild type-FLAG, U87
T3 sequence (looked up): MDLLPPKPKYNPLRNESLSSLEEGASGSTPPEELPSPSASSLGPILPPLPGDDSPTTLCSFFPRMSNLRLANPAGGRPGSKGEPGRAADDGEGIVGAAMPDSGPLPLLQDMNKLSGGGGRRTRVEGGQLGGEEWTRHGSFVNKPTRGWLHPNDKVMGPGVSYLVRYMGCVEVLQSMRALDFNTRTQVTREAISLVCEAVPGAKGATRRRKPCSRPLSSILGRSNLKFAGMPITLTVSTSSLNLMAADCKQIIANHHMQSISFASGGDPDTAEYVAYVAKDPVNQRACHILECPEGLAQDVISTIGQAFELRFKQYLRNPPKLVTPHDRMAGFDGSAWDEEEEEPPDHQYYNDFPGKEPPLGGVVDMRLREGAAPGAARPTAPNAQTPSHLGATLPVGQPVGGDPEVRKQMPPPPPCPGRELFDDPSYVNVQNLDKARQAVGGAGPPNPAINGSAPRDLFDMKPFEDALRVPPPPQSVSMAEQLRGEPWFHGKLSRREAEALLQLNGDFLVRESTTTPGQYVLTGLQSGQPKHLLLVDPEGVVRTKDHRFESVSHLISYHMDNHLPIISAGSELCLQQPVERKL

[11] = biological target: PML (human) (UniProt P29590); assay: IP/MS, LZTR1 wild type-FLAG, U87
[12] = biological target: EGFR-GFP (UniProt P00533); assay: summing up of the co-immunoprecipitations (discussion of Example 1)
[13] = biological target: AXL-HA (UniProt P30530); assay: as above
[14] = biological target: AXL-HA (UniProt P30530); assay: co-immunoprecipitation (HA affinity matrix; FLAG affinity matrix), HEK 293T lysates, western blot
[15] = biological target: AXL-HA (UniProt P30530); assay: co-immunoprecipitation, HEK 293T cells (legend of FIGS. 2R-S)
[16] = biological target: AXL-HA (UniProt P30530); assay: co-immunoprecipitation with HA antibody after Gas6, HEK 293T cells
[17] = biological target: EGFR-GFP (UniProt P00533); assay: co-immunoprecipitation with GFP antibody after EGF, HEK 293T cells
[18] = biological target: T4, ARAF (human), P10398; assay: IP/MS, LZTR1 wild type-FLAG, U87; settings: remark: other sources report otherwise
T4 chain: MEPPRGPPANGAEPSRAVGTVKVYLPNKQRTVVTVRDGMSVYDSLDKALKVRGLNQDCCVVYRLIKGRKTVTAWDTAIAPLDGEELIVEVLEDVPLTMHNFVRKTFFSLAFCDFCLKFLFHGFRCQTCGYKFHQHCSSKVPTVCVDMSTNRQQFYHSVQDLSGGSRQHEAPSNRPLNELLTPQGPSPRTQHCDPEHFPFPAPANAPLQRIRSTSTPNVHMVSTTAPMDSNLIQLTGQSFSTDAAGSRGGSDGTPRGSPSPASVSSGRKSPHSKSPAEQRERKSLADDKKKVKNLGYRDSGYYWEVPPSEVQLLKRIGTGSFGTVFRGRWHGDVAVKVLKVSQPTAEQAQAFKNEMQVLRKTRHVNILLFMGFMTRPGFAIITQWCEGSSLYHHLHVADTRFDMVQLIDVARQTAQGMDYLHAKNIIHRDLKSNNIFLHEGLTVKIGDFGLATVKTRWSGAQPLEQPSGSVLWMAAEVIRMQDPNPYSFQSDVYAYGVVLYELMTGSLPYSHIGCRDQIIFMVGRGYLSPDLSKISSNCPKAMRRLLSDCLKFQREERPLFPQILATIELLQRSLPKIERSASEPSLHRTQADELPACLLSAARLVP

[19] = biological target: EGFR-GFP (UniProt P00533); assay: GST pull-down, GST-LZTR1 deletion polypeptides with EGFR-GFP from HEK 293T lysates

binding [1]: binds
binding [2]: binds
binding [3]: binds
binding [4]: binds
binding [5]: binds
binding [6]: binds
binding [7]: binds
binding [8]: binds
binding [9]: binds
binding [10]: binds
binding [11]: binds
binding [12]: binds
binding [13]: binds
binding [14]: binds
binding [15]: binds
binding [16]: binds
binding [17]: binds
B1: LZTR1-FLAG (protein, human, UniProt Q8N653 1-840, looked up, not shown: small tags and cut ends)
chain: MAGPGSTGGQIGAAALAGGARSKVAPSVDFDHSCSDSVEYLTLNFGPFETVHRWRRLPPCDEFVGARRSKHTVVAYKDAIYVFGGDNGKTMLNDLLRFDVKDCSWCRAFTTGTPPAPRYHHSAVVYGSSMFVFGGYTGDIYSNSNLKNKNDLFEYKFATGQWTEWKIEGRLPVARSAHGATVYSDKLWIFAGYDGNARLNDMWTIGLQDRELTCWEEVAQSGEIPPSCCNFPVAVCRDKMFVFSGQSGAKITNNLFQFEFKDKTWTRIPTEHLLRGSPPPPQRRYGHTMVAFDRHLYVFGGAADNTLPNELHCYDVDFQTWEVVQPSSDSEVGGAEVPERACASEEVPTLTYEERVGFKKSRDVFGLDFGTTSAKQPTQPASELPSGRLFHAAAVISDAMYIFGGTVDNNIRSGEMYRFQFSCYPKCTLHEDYGRLWESRQFCDVEFVLGEKEECVQGHVAIVTARSRWLRRKITQARERLAQKLEQEAAPVPREAPGVAAGGARPPLLHVAIREAEARPFEVLMQFLYTDKIKYPRKGHVEDVLLIMDVYKLALSFQLCRLEQLCRQYIEASVDLQNVLVVCESAARLQLSQLKEHCLNFVVKESHFNQVIMMKEFERLSSPLIVEIVRRKQQPPPRTPLDQPVDIGTSLIQDMKAYLEGAGAEFCDITLLLDGHPRPAHKAILAARSSYFEAMFRSFMPEDGQVNISIGEMVPSRQAFESMLRYIYYGEVNMPPEDSLYLFAAPYYYGFYNNRLQAYCKQNLEMNVTVQNVLQILEAADKTQALDMKRHCLHIIVHQFTKVSKLPTLRSLSQQLLLDIIDSLASHISDKQCAELGADI

binding [18]: binds
B2: LZTR1-FLAG, Q8N653 1-840 (protein, human, UniProt Q8N653 1-840, looked up, not shown: small tags and cut ends)
chain: B1 chain

binding [19]: binds
B3: GST-LZTR1 Kelch domain (protein, not shown: a dimerising Fc or GST; large carriers; small tags and cut ends)
chain: MAGPGSTGGQIGAAALAGGARSKVAPSVDFDHSCSDSVEYLTLNFGPFETVHRWRRLPPCDEFVGARRSKHTVVAYKDAIYVFGGDNGKTMLNDLLRFDVKDCSWCRAFTTGTPPAPRYHHSAVVYGSSMFVFGGYTGDIYSNSNLKNKNDLFEYKFATGQWTEWKIEGRLPVARSAHGATVYSDKLWIFAGYDGNARLNDMWTIGLQDRELTCWEEVAQSGEIPPSCCNFPVAVCRDKMFVFSGQSGAKITNNLFQFEFKDKTWTRIPTEHLLRGSPPPPQRRYGHTMVAFDRHLYVFGGAADNTLPNELHCYDVDFQTWEVVQPSSDSEVGGAEVPERACASEEVPTLTYEERVGFKKSRDVFGLDFGTTSAKQPTQPASELPSGRLFHAAAVISDAMYIFGGTVDNNIRSGEMYRFQFSCYP
